Results from patent US20240360234A1 (NKARTA, published 2024).
Results are given in words; binding and its absence hold for the method and conditions named. Some binding calls cover weakened binding; strength is not graded here. Sequences can lack the tags named with a protein.

Molecular target: T1, CD70-hFc complex (extracellular domain of human CD70 fused with the Fc region of human IgG1) (human) (UniProt P32970)
T1 sequence (looked up): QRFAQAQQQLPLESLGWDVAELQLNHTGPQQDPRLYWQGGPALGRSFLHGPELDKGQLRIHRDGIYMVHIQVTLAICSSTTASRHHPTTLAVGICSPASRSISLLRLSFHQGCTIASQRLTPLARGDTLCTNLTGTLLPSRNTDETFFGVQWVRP
Assay: flow cytometry, CD70-hFc on NK72-transduced Jurkat cells (nearly 83% NK72 positive; the cells also carry endogenous CD27)

B1: NK72 anti-CD70 CAR (scFv, not shown: a dimerising Fc or GST; small tags and cut ends)
scFv: EVQLVQSGAEVKKPGESLKISCKGSGYGFTSYWIGWVRQMPGKGLEWMGIIHPDDSDTKYSPSFQGQVTISADKSISTAYLQWSSLKASDTAMYYCASSYLRGLWGGYFDYWGQGTLVTVSSGGGGSGGGGSGGGGSELQSVLTQPPSASGTPGQRVTISCSGSSSNIGSNYVNWYQQLPGTAPKLLIYGDYQRPSGVPDRFSGSKSGTSASLAISGLRSEDEADYYCATRDDSLSGSVVFGTGTKLTVL
- binding: binds
